According to PubChem BioAssay AID1347076 (National Center for Advancing Translational Sciences (NCATS), 2019):
Hit rate of the full screen: of about 400,000 compounds, about 13,000 (3.2%) were called active. Inconclusive means that the source gave no clear call. Such entries were picked first, then a sample of the others. Calls follow the shape of the dose curve; as a rule, active = well fitted cell-killing curve with a large enough effect; inconclusive = small, poorly fitted or top-dose-only effect, or effect the other way; inactive = flat fitted curve, though single readings scatter. Where the call is inconclusive, the potency comes from a doubtful curve fit.

experiment: qHTS assay for MDR1-selective chemotherapeutics: Primary screen using the drug-selected MDR subline cells KB-V1; conditions: KB-V1 MDR cells viability, CellTiter-Glo, 72 h; activity change, negative = cytotoxicity: at 46.1 µM (top of the series); also: nearly all actives have a fitted effect of over 60% in size
Method in brief: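 Luminescent ATP read-out (CellTiter-Glo, 10 min) measures survival of drug-selected KB-V1 MDR cells after 72 h, 37 degrees C compound exposure. Medium: phenol-red-free DMEM, 10% FBS. Values from fitted concentration-response curves.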
% is scaled to controls: 0 for no effect and ±100 for the full control effect; potency is read from the fitted curve at half-maximal effect.

Structure (SMILES)	activity change, negative = cytotoxicity	Potency
COc1ccccc1N(C)S(=O)(=O)c1ccc(C(=O)Nc2ccncc2)cc1	inactive: -27.5%	–
COc1ccc(S(=O)(=O)NC(Cc2ccccc2)C(=O)O)cc1 (centres undefined)	–	inconclusive: 10.3 µM [rising, partial curve, poor fit]
CCCCc1ccc(NC(=O)N2CCN(c3cc(C)nc4ccccc34)CC2)c(C)c1	–	inconclusive: 0.0046 µM [cytotoxic, full curve, poor fit]
O=C(CSc1nc2ccc(Cl)cc2o1)NCc1ccc2c(c1)OCO2	–	inconclusive: 29.1 µM [cytotoxic, single point]
CCOCCCn1c(=S)[nH]c2cc(C(=O)NCCc3ccc(OC)c(OC)c3)ccc2c1=O	–	inconclusive: 9.2 µM [rising, partial curve, poor fit]
COc1ccc(-c2nc3ccc(C)cn3c2Cc2cccc(Cl)c2)cc1OC	–	inconclusive: 29.1 µM [cytotoxic, single point]
CCOC(=O)/C(O)=C(\C#N)c1nc2ccccc2[nH]1	–	inconclusive: 14.6 µM [rising, partial curve, poor fit]
CCCCCCN1C[C@@H](n2cc(COC(=O)c3ccccc3)nn2)[C@H](O)C[C@@H]1c1ccc(C)cc1	–	inconclusive: 16.4 µM [cytotoxic, single point]
COc1ccc(Nc2nc(C)cc(C)n2)cc1Cl	inactive: 5.39%	–
CCn1cc2nc(SCC(=O)Nc3cccc(Cl)c3C)n(Cc3ccc(Cl)cc3)c(=O)c2n1	–	inconclusive: 0.146 µM [cytotoxic, full curve, poor fit]
Cc1ccc(C(C)C)c(OCC(=O)OCC(=O)NC2CCS(=O)(=O)C2)c1 (centres undefined)	–	inconclusive: 0.366 µM [rising, full curve]
CCCCCCCCCCCCCCCC[n+]1ccc(/C=N/O)cc1	inactive: -5.91%	–
COc1ccc(/C=C2/Sc3ccc(C(=O)N4CCOCC4)cc3NC2=O)cc1OC	–	inconclusive: 23.1 µM [rising, single point]
CC1CCC(N(CCCN)Cc2ccco2)CC1C (centres undefined)	–	inconclusive: 11.6 µM [cytotoxic, partial curve]
CCOc1ccc2c(c1)OC(c1ccc(C)cc1)(C(F)(F)F)NC2=O (centres undefined)	–	active: 1.3 µM
COc1ccc(NC(=O)C(=O)NCCc2csc3nc(-c4ccccc4C)nn23)cc1	inactive: -2.72%	–
CCSc1nnc(NC(=O)C2CCN(C(=O)c3ccc(F)cc3)CC2)s1	–	active: 20.6 µM
CCNC(=S)N/N=C/c1cc(Br)cc(Br)c1OC	inactive: 27.6%	–
COC(=O)c1sccc1NC(=O)Nc1ccc(C(C)=O)cc1	–	inconclusive: 9.2 µM [rising, partial curve]
CCCC[n+]1c(C)ccc2ccccc21	inactive: -0.468%	–
O=C(Nc1c(O)c2ccccc2oc1=O)c1ccccc1Cl	inactive: 20.7%	–
S=c1nc(-c2ccc(Br)cc2)oc2c1CCCC2	–	inconclusive: 0.291 µM [cytotoxic, full curve]

Quoted from the listing:
Under Potency, O=C(CSc1nc2ccc(Cl)cc2o1)NCc1ccc2c(c1)OCO2 is listed with inconclusive: 29.1 µM [cytotoxic, single point]
Under Potency, COc1ccc(S(=O)(=O)NC(Cc2ccccc2)C(=O)O)cc1 (centres undefined) is listed with inconclusive: 10.3 µM [rising, partial curve, poor fit]

(list continues)

Structure (SMILES)	activity change, negative = cytotoxicity	Potency
COc1ccc(CN2CC[C@H]3C=CC[C@@H](C(=O)Nc4ccc(Cl)cc4Cl)[C@H]3C2=O)cc1OC	–	inconclusive: 10.3 µM [cytotoxic, partial curve]
CCN1C[C@@H]2[C@@H]3C(=O)N(C)C(=O)[C@@H]3[C@](C)(C(=O)OC)N2C1=NC	–	inconclusive: 7.31 µM [rising, partial curve, poor fit]
COc1ccccc1-n1c(SCC(=O)OC(C)C)nc2cccnc21	inactive: 24.9%	–
CC(C)N1CCN(C(=O)c2ccc(NC(=O)c3ccc(Br)o3)cc2)CC1	–	inconclusive: 25.9 µM [rising, partial curve, poor fit]
O=C(Nc1nc2ccccc2s1)c1ccccc1	–	inconclusive: 18.4 µM [cytotoxic, partial curve, poor fit]
COc1cc(/C=N/NC(=O)c2ccc(CSc3nc4ccccc4[nH]3)cc2)cc(OC)c1OC	–	inconclusive: 20.6 µM [cytotoxic, partial curve, poor fit]
O=c1c2cc3c(=O)n(-c4ccccc4O)c(=O)c3cc2c(=O)n1-c1ccccc1O	–	inconclusive: 29.1 µM [rising, single point]
COc1cccc(CNC(=O)C2CCC(=O)N(CCc3cccc(F)c3)C2)c1 (centres undefined)	–	inconclusive: 16.4 µM [cytotoxic, single point]
O=C(N/N=C/c1ccc([N+](=O)[O-])o1)c1ccccc1-n1cccc1	–	inconclusive: 29.1 µM [cytotoxic, single point]
COc1cccc(/C=N/NC(=O)c2[nH]nc3c2CCc2ccccc2-3)c1O	–	inconclusive: 2.31 µM [cytotoxic, partial curve, poor fit]
O=C1CSC(=Nc2ccc(O)cc2)N1	–	inconclusive: 29.1 µM [rising, single point]
COc1ccccc1CCNC(=O)C1CCN(c2nc3ccccc3nc2C(F)(F)F)CC1	–	inconclusive: 23.1 µM [cytotoxic, single point]
CCCCOc1ccc(S(=O)(=O)Nc2cccnc2)cc1	–	active: 5.8 µM
CSCCC1NC2(C(=O)Nc3c(Cl)cccc32)[C@@H]2C(=O)N(C3CCCC3)C(=O)[C@H]12 (some centres undefined)	inactive: 4.67%	–
O=C(Nc1ccc(N2CCN(C(=O)c3ccco3)CC2)cc1)c1ccccc1F	–	inconclusive: 16.4 µM [cytotoxic, single point]
O=C(O)c1cccc(CSc2nc(-c3ccc(Cl)cc3)cc(C(F)(F)F)n2)c1	–	inconclusive: 20.6 µM [cytotoxic, single point]
CCN(N=O)c1ccc(/C=C2\C=Cc3ccccc32)cc1	–	inconclusive: 29.1 µM [rising, single point]
Cc1ccc(N=Nc2c(N)[nH]n3c(=O)cc(-c4ccccc4)nc23)cc1	–	inconclusive: 25.9 µM [cytotoxic, single point]
N#Cc1ccc(/C=C2/C=Cc3ccccc32)cc1	inactive: 3.8%	–
Cc1c(C(=O)NCC2CCCO2)sc2nc(-c3ccc(F)cc3)cn12 (centres undefined)	inactive: 15.5%	–
O=C(c1ccc(Cl)c(Cl)c1)N(Cc1ccco1)c1ccc(O)cc1	–	inconclusive: 25.9 µM [cytotoxic, single point]
Cc1[nH]n(C(N)=S)c(=O)c1N=Nc1ccc([N+](=O)[O-])cc1Cl	inactive: -12.5%	–
